Results are given in words; binding and its absence hold for the method and conditions named. Binding seen in cells or lysates may run through a third protein. Some results given as binding are weak or reduced against the parent protein; the word gives no strength.

Sequences of proteins named here, by UniProt entry; tags and fusion partners are left off.
UniProt P40337: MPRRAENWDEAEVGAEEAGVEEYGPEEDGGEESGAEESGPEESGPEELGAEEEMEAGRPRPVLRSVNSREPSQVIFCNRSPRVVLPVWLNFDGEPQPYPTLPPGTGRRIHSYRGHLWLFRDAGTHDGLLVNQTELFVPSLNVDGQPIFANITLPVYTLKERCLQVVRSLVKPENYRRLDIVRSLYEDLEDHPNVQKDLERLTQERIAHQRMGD
UniProt Q99497: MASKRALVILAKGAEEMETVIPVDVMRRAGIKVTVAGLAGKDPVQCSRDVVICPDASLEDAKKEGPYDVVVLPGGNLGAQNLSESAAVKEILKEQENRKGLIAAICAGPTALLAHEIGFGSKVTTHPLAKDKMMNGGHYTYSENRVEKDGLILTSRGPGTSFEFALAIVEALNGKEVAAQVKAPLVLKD

Experimental findings from paper PMC8910827 are described below.

This test addresses von Hippel–Lindau (VHL) protein (human (endogenous in placenta)) (UniProt P40337). Nature of the test: co-IP; anti-VHL as pull-down antibody (4 µg) on placental lysates (400 mg total protein as printed) of SPT, IUGR and PE pregnancies (n = 3 each); immunoblot for HIF-1α, HIF-2α or DJ1. In general terms: Immunoblotting shows a protein as a band on a membrane.

For the substance PARK7/DJ1 (from UniProt Q99497 1-189), the binding result is recorded as “binds”.
